For the assay, the target named is BAK (human (endogenous in HeLa)) (UniProt Q16611). The experiment in a line: affinity purification with mass spectrometry; SILAC-labelled HeLa cells, Ctr-infected 24 h or uninfected, with or without staurosporine and caspase inhibitor; 1% CHAPS lysates; BAK precipitated with BAK(aa23-38) or BAK(Ab-1) (active BAK) and protein G agarose; LC-MS/MS.

Chains of the proteins cited; added tags and fusions are not shown.
UniProt Q16611: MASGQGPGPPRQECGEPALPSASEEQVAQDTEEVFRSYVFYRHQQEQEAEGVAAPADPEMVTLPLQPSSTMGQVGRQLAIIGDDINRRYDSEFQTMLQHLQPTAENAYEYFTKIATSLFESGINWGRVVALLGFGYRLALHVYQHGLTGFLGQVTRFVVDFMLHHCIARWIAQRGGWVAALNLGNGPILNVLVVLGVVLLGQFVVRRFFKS

These are yes or no findings as the source states them, for the method shown. In cells and extracts the contact can be indirect. These calls come from enrichment with a bait or labelling near it, and not all partners need be listed.

B1: OmpA of Chlamydia trachomatis serovar L2, made by the bacteria during infection of HeLa cells (protein, UniProt P06597 23-394)
chain: LPVGNPAEPSLMIDGILWEGFGGDPCDPCTTWCDAISMRMGYYGDFVFDRVLQTDVNKEFQMGAKPTTATGNAAAPSTCTARENPAYGRHMQDAEMFTNAAYMALNIWDRFDVFCTLGATSGYLKGNSASFNLVGLFGDNENHATVSDSKLVPNMSLDQSVVELYTDTTFAWSAGARAALWECGCATLGASFQYAQSKPKVEELNVLCNAAEFTINKPKGYVGQEFPLDLKAGTDGVTGTKDASIDYHEWQASLALSYRLNMFTPYIGVKWSRASFDADTIRIAQPKSATTVFDVTTLNPTIAGAGDVKASAEGQLGDTMQIVSLQLNKMKSRKSCGIAVGTTIVDADKYAVTVETRLIDERAAHVNAQFRF
Regarding B1, the binding result was “binds”.

The record behind these values is PMC12890168.
